PubChem BioAssay AID276 (DTP/NCI, 2004)
The list shows only some results of the screen, not a fair sample: it gathers tests that were run many times, whatever their T/C, doses with no T/C, and many T/C values between a quarter and a half above the control. Further doses and runs are listed elsewhere. T/C is the treated group as % of the vehicle group. Some doses have a count of surviving animals in place of a T/C: the source holds a T/C of zero for them, seemingly a mark for toxic or unscored doses. Some doses without a T/C left all or most animals alive at the check, yet need not have been tolerated: the source hardly ever lists a survival T/C far under the control, and the zero likely stands for such cases as well. Survivors were counted at the toxicity check, usually on the fifth day, unless a day is given; later deaths do not show. Schedules are NCI's codes, read here as Q, the interval in days (D) or hours (H), X, the number of doses. Some entries were tested several times; their values stand side by side, smallest first. For survival time, the PubChem record calls one and a half times the control and up active, and a quarter to a half above the control has no call in these data; cut-offs in other NCI protocols can differ. Some T/C values carry the count of animals alive at the toxicity check (mostly the fifth day); without a count, all were alive then. Signs of the kind (2×) say how often a value occurs here.

System: B6C3F1 mice, Lewis lung carcinoma iv, survival T/C
Experiment: NCI In Vivo Anticancer Drug Screen. Data for tumor model Lewis Lung Carcinoma (intravenous) in B6C3F1 mice
Details: T/C endpoint: median survival time, schedule: Q01DX009 (ip), higher T/C = longer survival
Procedure, shortened: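 T/C ratio derived from survival of compound-treated versus vehicle-treated mice bearing transplantable tumors.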

[1] = dose: 0.5 mg/kg/injection, vehicle: saline
[2] = dose: 2.0 mg/kg/injection, vehicle: saline
[3] = dose: 4.0 mg/kg/injection, vehicle: saline
[4] = dose: 8.0 mg/kg/injection, vehicle: saline
[5] = dose: 50.0 mg/kg/injection, vehicle: saline
[6] = dose: 100.0 mg/kg/injection, vehicle: saline
[7] = dose: 200.0 mg/kg/injection, vehicle: saline
[8] = dose: 200.0 mg/kg/injection, vehicle: Klucel (hydroxypropylcellulose) (HPC)
[9] = dose: 800.0 mg/kg/injection, vehicle: Klucel (hydroxypropylcellulose) (HPC)
[10] = dose: 100.0 mg/kg/injection, vehicle: saline with Tween-80
[11] = dose: 200.0 mg/kg/injection, vehicle: saline with Tween-80
[12] = dose: 400.0 mg/kg/injection, vehicle: saline with Tween-80
[13] = dose: 50.0 mg/kg/injection, vehicle: water

## COc1cccc2c1C(=O)c1c(O)c3c(c(O)c1C2=O)C[C@@](O)(C(=O)CO)C[C@@H]3OC1CC(N)C(O)C(C)O1 (stereo not given in full)
dose: 0.25 mg/kg/injection, vehicle: saline
  T/C: 91, 97, 101, 102, 104, 116 % of control
dose: 0.25 mg/kg/injection, vehicle: water
  T/C: 129 % of control [9 of 10 alive]
[1]
  T/C: 86 [9 of 10 alive], 92, 98, 101 (2×), 104 (2×), 106, 107, 111 (2×), 114 % of control
  survivor count: 10 of 10
dose: 1.0 mg/kg/injection, vehicle: saline
  T/C: 97, 105, 107, 108 [9 of 10 alive], 110 (4×), 112, 116, 119 (2×), 125 % of control
dose: 1.0 mg/kg/injection, vehicle: water
  T/C: 126 % of control
[2]
  T/C: 106, 118, 119 [9 of 10 alive], 120 [9 of 10 alive], 125 (2×), 129 (3×), 132, 133, 143 % of control
  survivor count: 10 of 10
[3]
  survivor count: 9 of 10 and 10 of 10
dose: 4.0 mg/kg/injection, vehicle: water
  survivor count: 10 of 10
[4]
  survivor count: 8 of 10, 9 of 10, 10 of 10
dose: 8.0 mg/kg/injection, vehicle: water
  survivor count: 9 of 10

## CS(=O)(=O)CS(=O)(=O)OCCCl
dose: 12.5 mg/kg/injection, vehicle: saline
  T/C: 132 % of control
dose: 25.0 mg/kg/injection, vehicle: saline
  T/C: 131 % of control
[5]
  T/C: 135 % of control
[6]
  survivor count: 10 of 10
[7]
  survivor count: 4 of 10

## CC(C)(C)N1CC1CNC(=O)C(=O)NCC1CN1C(C)(C)C (stereo not given)
dose: 25.0 mg/kg/injection, vehicle: saline with Tween-80
  survivor count: 10 of 10

## CCCCCNc1ncnc2c(C)[nH]nc12
[8]
  survivor count: 4 of 10
dose: 400.0 mg/kg/injection, vehicle: Klucel (hydroxypropylcellulose) (HPC)
  survivor count: 0 of 10

## C[C@]12CCC(=O)C=C1CC[C@@H]1[C@@H]2C(=O)C[C@@]2(C)[C@H]1CC[C@]2(O)C(=O)CO
[9]
  survivor count: 10 of 10

## COc1cc2c(ccc3c4cc(OC)c(OC)cc4c[n+](C)c23)cc1O
[6]
  T/C: 125 % of control
[7]
  T/C: 134 % of control [9 of 10 alive]
dose: 400.0 mg/kg/injection, vehicle: saline
  survivor count: 10 of 10

## CC1=NNC(=O)C1CCO (stereo not given)
dose: 12.5 mg/kg/injection, vehicle: Klucel (hydroxypropylcellulose) (HPC)
  T/C: 126 % of control
dose: 25.0 mg/kg/injection, vehicle: Klucel (hydroxypropylcellulose) (HPC)
  T/C: 141 % of control

## O=C(O)CSc1c(Cl)c(=O)oc2ccc(Cl)cc12
[8]
  survivor count: 7 of 10

## O=S1(=O)C=C(c2ccccc2)C(c2ccccc2)=C1
dose: 50.0 mg/kg/injection, vehicle: saline with Tween-80
  survivor count: 7 of 10
[10]
  survivor count: 1 of 10

## CCN(CC)c1ccc2[nH]c3c(C(N)=O)cc(=O)c(=O)c=3oc2c1
[11]
  survivor count: 5 of 10

## C[C@@H]1C[C@@H]([C@H](O)CC2CC(=O)NC(=O)C2)C(=O)[C@@H](C)C1
[5]
  survivor count: 6 of 10
[6]
  survivor count: 5 of 10
[7]
  survivor count: 0 of 10

## O=NN(CCCl)C(=O)NCCCl
dose: 2.5 mg/kg/injection, vehicle: saline with Tween-80
  T/C: 127 % of control
dose: 6.0 mg/kg/injection, vehicle: Klucel (hydroxypropylcellulose) (HPC)
  T/C: 145 % of control
dose: 20.0 mg/kg/injection, vehicle: saline with Tween-80
  survivor count: 10 of 10
dose: 24.0 mg/kg/injection, vehicle: Klucel (hydroxypropylcellulose) (HPC)
  survivor count: 9 of 10
dose: 24.0 mg/kg/injection, vehicle: saline + alcohol
  survivor count: 10 of 10
dose: 40.0 mg/kg/injection, vehicle: saline with Tween-80
  survivor count: 9 of 10
dose: 80.0 mg/kg/injection, vehicle: saline with Tween-80
  survivor count: 7 of 10

## O=NN(CCCl)C(=O)NC1CCC(CC2CCC(NC(=O)N(CCCl)N=O)CC2)CC1 (stereo not given)
dose: 6.25 mg/kg/injection, vehicle: saline with Tween-80
  T/C: 136 % of control
dose: 12.5 mg/kg/injection, vehicle: saline with Tween-80
  T/C: 136 % of control
[10]
  survivor count: 10 of 10
[11]
  survivor count: 10 of 10

## BrCCC1(CCBr)CCCCC1
dose: 800.0 mg/kg/injection, vehicle: water
  survivor count: 6 of 10

## C(C#CCN1CCOCC1)#CCN1CCOCC1
[8]
  survivor count: 9 of 10

## C=C1C(=O)OCC1(C(=O)OCC)C(=O)OCC
dose: 64.0 mg/kg/injection, vehicle: saline with Tween-80
  survivor count: 3 of 10

## NC(=O)c1[nH]nc(C2OC(CO)C(O)C2O)c1O (stereo not given)
dose: 2.5 mg/kg/injection, vehicle: saline
  survivor count: 8 of 8
dose: 5.0 mg/kg/injection, vehicle: saline
  survivor count: 10 of 10 and 8 of 8
dose: 10.0 mg/kg/injection, vehicle: saline
  survivor count: 5 of 8 and 10 of 10

## O=S(=O)(SC(S(=O)(=O)c1ccccc1)S(=O)(=O)c1ccccc1)c1ccccc1
[9]
  survivor count: 5 of 10

## NC(=O)c1c[se]c(C2OC(CO)C(O)C2O)n1 (stereo not given)
dose: 6.0 mg/kg/injection, vehicle: water
  survivor count: 10 of 10
dose: 9.0 mg/kg/injection, vehicle: water
  survivor count: 10 of 10
dose: 20.0 mg/kg/injection, vehicle: water
  survivor count: 10 of 10
dose: 200.0 mg/kg/injection, vehicle: water
  survivor count: 10 of 10

## Cc1c(N)nc(C(CC(N)=O)NCC(N)C(N)=O)nc1C(=O)NC(C(=O)NC(C)C(O)CC(=O)NC(C(=O)NC(OC1OC(C)C(N)C(O)C1O)C(O)c1nc(-c2nc(C(=O)NCCCC(N)CC(=O)NCCCNCCCCN)cs2)cs1)C(C)O)C(OC1OC(CO)C(O)C(O)C1OC1OC(CO)C(O)C(OC(N)=O)C1O)c1cnc[nH]1 (stereo not given)
[3]
  T/C: 145 % of control
[4]
  survivor count: 10 of 10
dose: 16.0 mg/kg/injection, vehicle: saline
  survivor count: 9 of 10

## c1cc(OCC2CO2)ccc1OCC1CO1 (stereo not given)
[11]
  survivor count: 4 of 10
[12]
  survivor count: 3 of 10

## Nc1n[n+](-c2ccccc2)no1
[13]
  survivor count: 1 of 10

## O=C(Nc1nncs1)c1cccs1
[11]
  survivor count: 10 of 10
[12]
  survivor count: 10 of 10

## COc1ccc(-c2csc(=[N+]3CCCCC3)s2)cc1
[13]
  survivor count: 0 of 10

## O=C1C(NCCO)=C(N2CC2)C(=O)C(NCCO)=C1N1CC1
[2]
  survivor count: 10 of 10

## CNC(=O)/C=C/C1=CN2C(=O)c3ccc(C)c(O)c3NC(OC)C2C1 (stereo not given)
dose: 0.2 mg/kg/injection, vehicle: saline
  survivor count: 10 of 10
dose: 0.4 mg/kg/injection, vehicle: saline
  survivor count: 6 of 10 and 10 of 10

## Cc1c(O)ccc(=O)n1O
dose: 256.0 mg/kg/injection, vehicle: saline with Tween-80
  survivor count: 7 of 10
dose: 512.0 mg/kg/injection, vehicle: saline with Tween-80
  survivor count: 0 of 10

## NCCCNCCSP(=O)(O)O
[12]
  survivor count: 6 of 6
